Assay results: the supplement of paper PMC12823440, “Inhibitors supercharge kinase turnover through native proteolytic circuits” (Nature, 2025)
Some of the results follow. Hit calls seldom repeat between salt and free forms of one compound.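 In K562 cells expressing nanoluciferase-fused kinases, luminescence was recorded at 4 h intervals between 2 and 18 h, normalized as percent of control with DMSO at 100% and a positive control at 0%. A significant (2 sigma) signal drop marks a time point as decreased. The authors' rule for a hit is not shown and takes in more than the number of time points.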

The chains behind the UniProt entries cited, without tags or fusion partners. Where a name states a change or a piece, a line headed by the entry shows the natural chain unless it says otherwise.
UniProt Q15208: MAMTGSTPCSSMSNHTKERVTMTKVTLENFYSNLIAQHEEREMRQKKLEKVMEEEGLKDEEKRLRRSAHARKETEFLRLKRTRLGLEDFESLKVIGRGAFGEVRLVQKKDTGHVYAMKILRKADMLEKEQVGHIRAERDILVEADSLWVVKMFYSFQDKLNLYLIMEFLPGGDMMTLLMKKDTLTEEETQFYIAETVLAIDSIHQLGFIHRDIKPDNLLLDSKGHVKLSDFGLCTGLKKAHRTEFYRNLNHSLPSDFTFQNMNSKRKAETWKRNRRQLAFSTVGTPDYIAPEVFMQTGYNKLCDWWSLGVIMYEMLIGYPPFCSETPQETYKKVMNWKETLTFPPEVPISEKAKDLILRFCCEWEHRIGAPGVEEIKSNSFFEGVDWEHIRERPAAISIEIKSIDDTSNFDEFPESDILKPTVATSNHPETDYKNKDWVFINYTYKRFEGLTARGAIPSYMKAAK
UniProt P42680: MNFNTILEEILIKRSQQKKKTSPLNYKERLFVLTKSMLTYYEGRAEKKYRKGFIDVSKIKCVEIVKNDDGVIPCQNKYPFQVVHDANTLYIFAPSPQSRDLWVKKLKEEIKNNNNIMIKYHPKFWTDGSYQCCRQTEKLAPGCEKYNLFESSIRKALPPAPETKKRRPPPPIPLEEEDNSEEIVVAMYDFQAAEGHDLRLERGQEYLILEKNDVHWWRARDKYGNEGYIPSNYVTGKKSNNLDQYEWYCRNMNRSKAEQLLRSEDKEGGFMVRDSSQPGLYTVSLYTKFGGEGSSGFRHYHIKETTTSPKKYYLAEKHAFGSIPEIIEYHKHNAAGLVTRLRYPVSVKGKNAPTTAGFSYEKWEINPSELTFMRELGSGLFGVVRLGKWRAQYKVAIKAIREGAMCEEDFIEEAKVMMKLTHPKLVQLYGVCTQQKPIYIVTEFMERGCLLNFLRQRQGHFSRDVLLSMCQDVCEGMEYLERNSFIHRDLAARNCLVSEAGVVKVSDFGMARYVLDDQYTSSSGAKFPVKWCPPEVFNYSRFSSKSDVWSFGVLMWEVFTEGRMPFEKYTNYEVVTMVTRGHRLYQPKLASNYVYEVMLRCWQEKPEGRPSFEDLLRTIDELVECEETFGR
UniProt P29597: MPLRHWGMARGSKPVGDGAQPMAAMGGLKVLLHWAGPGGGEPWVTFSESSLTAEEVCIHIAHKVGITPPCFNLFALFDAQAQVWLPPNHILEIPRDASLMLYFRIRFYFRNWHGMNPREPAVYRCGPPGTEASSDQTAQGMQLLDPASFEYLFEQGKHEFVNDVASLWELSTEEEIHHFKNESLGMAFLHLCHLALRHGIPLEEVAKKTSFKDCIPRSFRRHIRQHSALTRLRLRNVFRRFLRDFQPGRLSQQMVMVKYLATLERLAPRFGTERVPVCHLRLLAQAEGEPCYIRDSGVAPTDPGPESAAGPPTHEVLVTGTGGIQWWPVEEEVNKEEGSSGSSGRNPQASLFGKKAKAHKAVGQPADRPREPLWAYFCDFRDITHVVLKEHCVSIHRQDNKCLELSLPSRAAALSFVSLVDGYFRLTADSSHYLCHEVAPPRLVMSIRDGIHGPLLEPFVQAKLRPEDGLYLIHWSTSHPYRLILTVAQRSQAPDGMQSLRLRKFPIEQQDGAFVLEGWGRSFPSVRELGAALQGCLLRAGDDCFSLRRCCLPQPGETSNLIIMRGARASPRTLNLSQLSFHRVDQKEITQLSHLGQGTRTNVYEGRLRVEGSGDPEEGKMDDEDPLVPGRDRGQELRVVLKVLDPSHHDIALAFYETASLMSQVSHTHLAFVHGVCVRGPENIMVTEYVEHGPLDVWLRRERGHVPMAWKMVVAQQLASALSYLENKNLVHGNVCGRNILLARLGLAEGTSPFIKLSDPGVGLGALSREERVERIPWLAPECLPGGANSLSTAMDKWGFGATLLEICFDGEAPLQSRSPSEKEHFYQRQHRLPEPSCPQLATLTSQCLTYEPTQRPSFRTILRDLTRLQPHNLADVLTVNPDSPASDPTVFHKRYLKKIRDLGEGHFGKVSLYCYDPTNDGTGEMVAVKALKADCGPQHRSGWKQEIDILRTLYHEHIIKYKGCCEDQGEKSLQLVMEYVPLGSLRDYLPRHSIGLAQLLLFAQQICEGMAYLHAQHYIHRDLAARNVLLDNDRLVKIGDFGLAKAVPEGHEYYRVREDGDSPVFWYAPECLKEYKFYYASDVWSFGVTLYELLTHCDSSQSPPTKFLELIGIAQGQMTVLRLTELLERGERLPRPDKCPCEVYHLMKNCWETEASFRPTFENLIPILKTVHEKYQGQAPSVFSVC
UniProt Q6PHR2: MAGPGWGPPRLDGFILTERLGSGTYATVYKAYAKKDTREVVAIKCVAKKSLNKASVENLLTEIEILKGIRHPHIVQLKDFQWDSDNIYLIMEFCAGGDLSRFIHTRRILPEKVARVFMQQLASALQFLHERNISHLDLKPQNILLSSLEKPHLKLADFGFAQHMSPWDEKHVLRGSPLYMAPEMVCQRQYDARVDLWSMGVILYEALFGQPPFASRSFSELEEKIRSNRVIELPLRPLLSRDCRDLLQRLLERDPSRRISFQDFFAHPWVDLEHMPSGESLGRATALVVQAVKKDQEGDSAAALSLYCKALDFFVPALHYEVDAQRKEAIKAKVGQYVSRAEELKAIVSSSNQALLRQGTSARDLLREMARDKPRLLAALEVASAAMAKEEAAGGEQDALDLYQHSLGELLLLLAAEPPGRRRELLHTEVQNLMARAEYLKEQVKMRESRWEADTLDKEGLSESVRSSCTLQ
UniProt P07947, whole entry, looked up: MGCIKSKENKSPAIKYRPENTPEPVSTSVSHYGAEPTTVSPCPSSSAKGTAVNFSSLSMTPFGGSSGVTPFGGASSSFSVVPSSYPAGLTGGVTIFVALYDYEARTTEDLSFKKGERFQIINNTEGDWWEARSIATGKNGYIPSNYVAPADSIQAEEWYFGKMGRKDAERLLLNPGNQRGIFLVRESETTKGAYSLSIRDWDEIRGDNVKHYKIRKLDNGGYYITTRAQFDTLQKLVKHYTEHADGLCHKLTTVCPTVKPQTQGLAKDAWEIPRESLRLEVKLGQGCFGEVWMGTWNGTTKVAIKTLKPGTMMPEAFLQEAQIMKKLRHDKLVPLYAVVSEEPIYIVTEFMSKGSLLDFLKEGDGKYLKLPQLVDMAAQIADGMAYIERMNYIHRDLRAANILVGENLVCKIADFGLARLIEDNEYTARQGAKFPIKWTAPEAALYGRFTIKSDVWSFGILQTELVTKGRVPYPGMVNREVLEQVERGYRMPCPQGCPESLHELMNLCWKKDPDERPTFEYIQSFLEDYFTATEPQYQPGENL
UniProt P43403: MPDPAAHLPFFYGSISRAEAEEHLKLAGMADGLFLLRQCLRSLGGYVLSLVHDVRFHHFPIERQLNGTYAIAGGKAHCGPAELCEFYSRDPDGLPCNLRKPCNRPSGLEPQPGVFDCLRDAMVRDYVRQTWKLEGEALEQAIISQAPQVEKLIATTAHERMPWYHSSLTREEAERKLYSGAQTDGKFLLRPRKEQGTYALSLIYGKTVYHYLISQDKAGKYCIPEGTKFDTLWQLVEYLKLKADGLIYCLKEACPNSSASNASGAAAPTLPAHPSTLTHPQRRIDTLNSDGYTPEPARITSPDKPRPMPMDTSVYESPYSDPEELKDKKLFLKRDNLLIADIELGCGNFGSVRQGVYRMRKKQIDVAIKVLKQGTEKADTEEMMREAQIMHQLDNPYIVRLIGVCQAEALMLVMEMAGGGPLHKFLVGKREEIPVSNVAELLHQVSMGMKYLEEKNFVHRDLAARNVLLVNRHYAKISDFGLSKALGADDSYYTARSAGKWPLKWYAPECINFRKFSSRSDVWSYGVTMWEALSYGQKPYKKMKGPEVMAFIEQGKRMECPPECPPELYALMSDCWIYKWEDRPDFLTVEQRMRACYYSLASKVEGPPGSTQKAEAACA
UniProt P00519, whole entry: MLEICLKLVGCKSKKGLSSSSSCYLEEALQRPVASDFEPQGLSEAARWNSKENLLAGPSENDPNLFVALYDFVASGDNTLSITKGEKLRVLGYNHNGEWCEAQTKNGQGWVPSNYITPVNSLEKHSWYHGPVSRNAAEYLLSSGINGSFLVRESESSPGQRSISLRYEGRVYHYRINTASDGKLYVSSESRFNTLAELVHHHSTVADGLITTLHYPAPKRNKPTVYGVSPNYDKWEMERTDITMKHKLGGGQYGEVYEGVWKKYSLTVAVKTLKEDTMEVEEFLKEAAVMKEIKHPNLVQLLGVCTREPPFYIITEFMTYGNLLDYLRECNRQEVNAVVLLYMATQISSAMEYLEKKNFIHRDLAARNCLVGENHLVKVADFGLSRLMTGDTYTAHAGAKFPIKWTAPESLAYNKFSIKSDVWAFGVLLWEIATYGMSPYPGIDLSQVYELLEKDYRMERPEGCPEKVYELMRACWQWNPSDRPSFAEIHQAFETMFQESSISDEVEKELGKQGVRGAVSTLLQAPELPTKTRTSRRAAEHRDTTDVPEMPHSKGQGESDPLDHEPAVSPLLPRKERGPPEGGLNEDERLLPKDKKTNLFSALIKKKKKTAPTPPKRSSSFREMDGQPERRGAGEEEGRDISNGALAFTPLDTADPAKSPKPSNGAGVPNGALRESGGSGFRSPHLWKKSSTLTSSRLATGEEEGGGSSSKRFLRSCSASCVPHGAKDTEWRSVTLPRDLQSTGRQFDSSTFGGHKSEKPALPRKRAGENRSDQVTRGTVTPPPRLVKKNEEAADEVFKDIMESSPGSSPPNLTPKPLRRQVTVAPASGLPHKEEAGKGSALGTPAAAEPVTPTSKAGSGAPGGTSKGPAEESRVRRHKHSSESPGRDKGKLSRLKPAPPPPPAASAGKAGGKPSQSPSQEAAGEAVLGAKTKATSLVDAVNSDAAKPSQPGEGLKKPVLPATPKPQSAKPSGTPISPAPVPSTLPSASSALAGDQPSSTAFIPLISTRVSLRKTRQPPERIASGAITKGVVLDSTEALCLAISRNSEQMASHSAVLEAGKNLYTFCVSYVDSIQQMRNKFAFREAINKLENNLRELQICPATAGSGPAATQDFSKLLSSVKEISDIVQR
UniProt P31749: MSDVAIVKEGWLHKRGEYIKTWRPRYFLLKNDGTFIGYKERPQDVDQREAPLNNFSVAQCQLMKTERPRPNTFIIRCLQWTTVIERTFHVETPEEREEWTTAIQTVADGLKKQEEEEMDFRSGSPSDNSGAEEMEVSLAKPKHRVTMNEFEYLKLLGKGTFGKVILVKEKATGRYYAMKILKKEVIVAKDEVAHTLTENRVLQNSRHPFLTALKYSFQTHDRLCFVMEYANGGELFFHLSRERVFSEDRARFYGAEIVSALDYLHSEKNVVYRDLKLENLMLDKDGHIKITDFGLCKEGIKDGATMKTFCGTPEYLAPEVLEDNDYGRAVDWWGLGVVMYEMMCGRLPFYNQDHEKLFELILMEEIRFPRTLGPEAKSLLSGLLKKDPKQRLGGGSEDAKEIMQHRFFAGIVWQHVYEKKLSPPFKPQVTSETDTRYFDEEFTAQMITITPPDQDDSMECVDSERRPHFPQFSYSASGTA

Experiments:
Conditions in all cases: K562; 2-18 h
STK38 = STK38 (UniProt Q15208); experiment: kinase-Nluc reporter destabilization hit call (1 = scored as downregulated) (binary); higher = compound decreases kinase abundance
SYK = SYK (UniProt P43405); experiment: as above
TEC = TEC (UniProt P42680); experiment: as above
TYK2 = TYK2 (UniProt P29597); experiment: as above
ULK3 = ULK3 (UniProt Q6PHR2); experiment: as above
YES1 = YES1 (UniProt P07947); experiment: as above
ZAK = ZAK (UniProt Q9NYL2); experiment: as above
ZAP70 = ZAP70 (UniProt P43403); experiment: as above
ABL1 = ABL1 (UniProt P00519); experiment: number of time points (of 5) at which kinase-Nluc abundance scored as decreased, DMSO-normalised (count); higher = more persistent destabilization
AKT1 = AKT1 (UniProt P31749); experiment: as above

Structure (SMILES): CC(C)CCNC(=O)c1ccc2c(c1)nc(Nc1n[nH]c3ccc(-c4ccccc4OC(F)(F)F)cc13)n2C1CCC(O)CC1 (stereo not drawn) [IRAK inhibitor 4 (trans)] (10 µM)
- kinase-Nluc reporter destabilization hit call (STK38): inactive: 0
- kinase-Nluc reporter destabilization hit call (SYK): inactive: 0
- kinase-Nluc reporter destabilization hit call (TEC): inactive: 0
- kinase-Nluc reporter destabilization hit call (TYK2): inactive: 0
- kinase-Nluc reporter destabilization hit call (ULK3): inactive: 0
- kinase-Nluc reporter destabilization hit call (YES1): inactive: 0
- kinase-Nluc reporter destabilization hit call (ZAK): inactive: 0
- kinase-Nluc reporter destabilization hit call (ZAP70): inactive: 0
- number of time points (ABL1): 0
- number of time points (AKT1): 0

Structure (SMILES): Nc1ncnc2c1c(-c1ccc(Oc3ccccc3)cc1)nn2C1CCN(CCOCCOCCOc2ccc3c(c2)CN(C2CCC(=O)NC2=O)C3=O)CC1 (stereo not given) (2.5 µM)
- kinase-Nluc reporter destabilization hit call (STK38): inactive: 0
- kinase-Nluc reporter destabilization hit call (SYK): inactive: 0
- kinase-Nluc reporter destabilization hit call (TEC): active: 1
- kinase-Nluc reporter destabilization hit call (TYK2): inactive: 0
- kinase-Nluc reporter destabilization hit call (ULK3): inactive: 0
- kinase-Nluc reporter destabilization hit call (YES1): inactive: 0
- kinase-Nluc reporter destabilization hit call (ZAK): inactive: 0
- kinase-Nluc reporter destabilization hit call (ZAP70): inactive: 0
- number of time points (ABL1): 0
- number of time points (AKT1): 0

Structure (SMILES): Cc1cc(-c2ccnc(Nc3cnn(C)c3)n2)ccc1CNC(=O)N1CC(OC(C)C)C1 (10 µM)
- kinase-Nluc reporter destabilization hit call (STK38): inactive: 0
- kinase-Nluc reporter destabilization hit call (SYK): inactive: 0
- kinase-Nluc reporter destabilization hit call (TEC): inactive: 0
- kinase-Nluc reporter destabilization hit call (TYK2): inactive: 0
- kinase-Nluc reporter destabilization hit call (ULK3): inactive: 0
- kinase-Nluc reporter destabilization hit call (YES1): inactive: 0
- kinase-Nluc reporter destabilization hit call (ZAK): inactive: 0
- kinase-Nluc reporter destabilization hit call (ZAP70): inactive: 0
- number of time points (ABL1): 0
- number of time points (AKT1): 0

Structure (SMILES): CCN(CC)c1cc2oc(=O)c(-c3nc4ccccc4o3)cc2cc1C (2.5 µM)
- kinase-Nluc reporter destabilization hit call (STK38): inactive: 0
- kinase-Nluc reporter destabilization hit call (SYK): inactive: 0
- kinase-Nluc reporter destabilization hit call (TEC): inactive: 0
- kinase-Nluc reporter destabilization hit call (TYK2): inactive: 0
- kinase-Nluc reporter destabilization hit call (ULK3): inactive: 0
- kinase-Nluc reporter destabilization hit call (YES1): inactive: 0
- kinase-Nluc reporter destabilization hit call (ZAK): inactive: 0
- kinase-Nluc reporter destabilization hit call (ZAP70): inactive: 0
- number of time points (ABL1): 0
- number of time points (AKT1): 0

Structure (SMILES): O=c1cc(N2CCOCC2)nc2c3ccccc3ccn12 [Compound 401] (10 µM)
- kinase-Nluc reporter destabilization hit call (STK38): inactive: 0
- kinase-Nluc reporter destabilization hit call (SYK): inactive: 0
- kinase-Nluc reporter destabilization hit call (TEC): inactive: 0
- kinase-Nluc reporter destabilization hit call (TYK2): inactive: 0
- kinase-Nluc reporter destabilization hit call (ULK3): inactive: 0
- kinase-Nluc reporter destabilization hit call (YES1): inactive: 0
- kinase-Nluc reporter destabilization hit call (ZAK): inactive: 0
- kinase-Nluc reporter destabilization hit call (ZAP70): inactive: 0
- number of time points (ABL1): 0
- number of time points (AKT1): 0

Structure (SMILES): COc1nn(C)cc1Nc1nccc(-c2c[nH]c3c(NC(=O)[C@@H](C)N4CCN(C)CC4)cccc23)n1 (10 µM)
- kinase-Nluc reporter destabilization hit call (STK38): inactive: 0
- kinase-Nluc reporter destabilization hit call (SYK): inactive: 0
- kinase-Nluc reporter destabilization hit call (TEC): inactive: 0
- kinase-Nluc reporter destabilization hit call (TYK2): inactive: 0
- kinase-Nluc reporter destabilization hit call (ULK3): inactive: 0
- kinase-Nluc reporter destabilization hit call (YES1): inactive: 0
- kinase-Nluc reporter destabilization hit call (ZAK): inactive: 0
- kinase-Nluc reporter destabilization hit call (ZAP70): inactive: 0
- number of time points (ABL1): 0
- number of time points (AKT1): 0

Structure (SMILES): Cc1ccc(Oc2nc3cc(-c4ccc(-c5ccccc5)cc4)c(Cl)cc3[nH]2)cc1C(=O)O (10 µM)
- kinase-Nluc reporter destabilization hit call (STK38): inactive: 0
- kinase-Nluc reporter destabilization hit call (SYK): inactive: 0
- kinase-Nluc reporter destabilization hit call (TEC): inactive: 0
- kinase-Nluc reporter destabilization hit call (TYK2): inactive: 0
- kinase-Nluc reporter destabilization hit call (ULK3): inactive: 0
- kinase-Nluc reporter destabilization hit call (YES1): inactive: 0
- kinase-Nluc reporter destabilization hit call (ZAK): inactive: 0
- kinase-Nluc reporter destabilization hit call (ZAP70): inactive: 0
- number of time points (ABL1): 0
- number of time points (AKT1): 0

Structure (SMILES): Oc1ccc(/C=C/c2cc(O)cc(F)c2)cc1 [Resveratrol analog 1] (10 µM)
- kinase-Nluc reporter destabilization hit call (STK38): inactive: 0
- kinase-Nluc reporter destabilization hit call (SYK): inactive: 0
- kinase-Nluc reporter destabilization hit call (TEC): inactive: 0
- kinase-Nluc reporter destabilization hit call (TYK2): inactive: 0
- kinase-Nluc reporter destabilization hit call (ULK3): inactive: 0
- kinase-Nluc reporter destabilization hit call (YES1): inactive: 0
- kinase-Nluc reporter destabilization hit call (ZAK): inactive: 0
- kinase-Nluc reporter destabilization hit call (ZAP70): inactive: 0
- number of time points (ABL1): 0
- number of time points (AKT1): 0
